Experimental findings from EP1516629B1 are described below.

The chains are these.
T1: rhesus CD11a (rhesus) (UniProt H9Z8N3)
T1 sequence: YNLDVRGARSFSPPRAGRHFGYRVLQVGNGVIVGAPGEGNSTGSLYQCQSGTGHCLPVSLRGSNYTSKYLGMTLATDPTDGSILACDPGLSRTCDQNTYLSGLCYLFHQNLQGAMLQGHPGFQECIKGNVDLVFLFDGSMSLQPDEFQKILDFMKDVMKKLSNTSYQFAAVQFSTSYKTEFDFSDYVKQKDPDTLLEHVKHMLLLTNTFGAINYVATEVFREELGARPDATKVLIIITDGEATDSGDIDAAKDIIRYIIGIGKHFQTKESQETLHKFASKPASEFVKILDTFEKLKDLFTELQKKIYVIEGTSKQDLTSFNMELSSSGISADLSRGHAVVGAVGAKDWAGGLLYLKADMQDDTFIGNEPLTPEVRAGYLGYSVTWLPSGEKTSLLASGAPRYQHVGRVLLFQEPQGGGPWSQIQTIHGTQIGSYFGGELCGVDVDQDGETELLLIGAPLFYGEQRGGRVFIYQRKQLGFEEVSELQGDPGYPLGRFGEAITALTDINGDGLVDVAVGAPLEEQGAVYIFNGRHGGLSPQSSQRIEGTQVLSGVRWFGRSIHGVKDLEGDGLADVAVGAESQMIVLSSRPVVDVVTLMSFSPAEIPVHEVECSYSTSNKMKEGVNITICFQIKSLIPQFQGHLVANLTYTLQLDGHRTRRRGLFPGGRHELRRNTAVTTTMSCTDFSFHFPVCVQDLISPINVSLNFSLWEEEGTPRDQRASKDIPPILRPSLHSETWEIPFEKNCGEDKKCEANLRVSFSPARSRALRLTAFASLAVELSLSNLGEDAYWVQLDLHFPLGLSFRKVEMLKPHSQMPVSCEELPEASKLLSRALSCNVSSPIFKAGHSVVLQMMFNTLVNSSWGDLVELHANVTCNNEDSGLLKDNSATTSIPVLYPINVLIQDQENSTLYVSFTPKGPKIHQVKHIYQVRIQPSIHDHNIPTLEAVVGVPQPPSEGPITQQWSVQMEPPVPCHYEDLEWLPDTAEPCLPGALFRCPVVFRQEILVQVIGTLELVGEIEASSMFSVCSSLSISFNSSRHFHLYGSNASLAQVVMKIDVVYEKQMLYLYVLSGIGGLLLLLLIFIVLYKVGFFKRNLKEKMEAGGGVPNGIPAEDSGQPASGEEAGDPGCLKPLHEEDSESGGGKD

B1: H2B variant IgG1 (antibody, V domains shown)
VH: EVQLVESGGGLVQPGGSLRLSCAASGYSFTGHWMNWVRQAPGKGLEWVGMIHPSASATAYNQKFKDRFTISVDKSKNTLYLQMNSLRAEDTAVYYCARGIYFYGTTYFDYWGQGTLVTVSS
VL: DIQMTQSPSSLSASVGDRVTITCRASKTISKYLAWYQQKPGKAPKLLIYSGSTLQSGVPSRFSGSGSGTDFTLTISSLQPEDFATYYCQQHNEYPLTFGQGTKVEIK
B2: TyrH99Ala variant IgG1 (antibody, V domains shown)
VH: EVQLVESGGGLVQPGGSLRLSCAASGYSFTGHWMNWVRQAPGKGLEWVGMIHPSDSETRYNQKFKDRFTISVDKSKNTLYLQMNSLRAEDTAVYYCARGIYFAGTTYFDYWGQGTLVTVSS
VL: DIQMTQSPSSLSASVGDRVTITCRASKTISKYLAWYQQKPGKAPKLLIYSGSTLQSGVPSRFSGSGSGTDFTLTISSLQPEDFATYYCQQHNEYPLTFGQGTKVEIK
B3: LysH73Ala variant IgG1 (antibody, V domains shown)
VH: EVQLVESGGGLVQPGGSLRLSCAASGYSFTGHWMNWVRQAPGKGLEWVGMIHPSDSETRYNQKFKDRFTISVDASKNTLYLQMNSLRAEDTAVYYCARGIYFYGTTYFDYWGQGTLVTVSS
VL: DIQMTQSPSSLSASVGDRVTITCRASKTISKYLAWYQQKPGKAPKLLIYSGSTLQSGVPSRFSGSGSGTDFTLTISSLQPEDFATYYCQQHNEYPLTFGQGTKVEIK
B4: H3B variant IgG1 (antibody, V domains shown)
VH: EVQLVESGGGLVQPGGSLRLSCAASGYSFTGHWMNWVRQAPGKGLEWVGMIHPSDSETRYNQKFKDRFTISVDKSKNTLYLQMNSLRAEDTAVYYCARGIYFYGAAAFDYWGQGTLVTVSS
VL: DIQMTQSPSSLSASVGDRVTITCRASKTISKYLAWYQQKPGKAPKLLIYSGSTLQSGVPSRFSGSGSGTDFTLTISSLQPEDFATYYCQQHNEYPLTFGQGTKVEIK
B5: HisH52Ser variant IgG1 (antibody, V domains shown)
VH: EVQLVESGGGLVQPGGSLRLSCAASGYSFTGHWMNWVRQAPGKGLEWVGMISPSDSETRYNQKFKDRFTISVDKSKNTLYLQMNSLRAEDTAVYYCARGIYFYGTTYFDYWGQGTLVTVSS
VL: DIQMTQSPSSLSASVGDRVTITCRASKTISKYLAWYQQKPGKAPKLLIYSGSTLQSGVPSRFSGSGSGTDFTLTISSLQPEDFATYYCQQHNEYPLTFGQGTKVEIK
B6: SerH55Asn variant IgG1 (antibody, V domains shown)
VH: EVQLVESGGGLVQPGGSLRLSCAASGYSFTGHWMNWVRQAPGKGLEWVGMIHPSDNETRYNQKFKDRFTISVDKSKNTLYLQMNSLRAEDTAVYYCARGIYFYGTTYFDYWGQGTLVTVSS
VL: DIQMTQSPSSLSASVGDRVTITCRASKTISKYLAWYQQKPGKAPKLLIYSGSTLQSGVPSRFSGSGSGTDFTLTISSLQPEDFATYYCQQHNEYPLTFGQGTKVEIK
B7: TyrH97Ala variant IgG1 (antibody, V domains shown)
VH: EVQLVESGGGLVQPGGSLRLSCAASGYSFTGHWMNWVRQAPGKGLEWVGMIHPSDSETRYNQKFKDRFTISVDKSKNTLYLQMNSLRAEDTAVYYCARGIAFYGTTYFDYWGQGTLVTVSS
VL: DIQMTQSPSSLSASVGDRVTITCRASKTISKYLAWYQQKPGKAPKLLIYSGSTLQSGVPSRFSGSGSGTDFTLTISSLQPEDFATYYCQQHNEYPLTFGQGTKVEIK

These are yes or no findings as the source states them, for the method shown. Sequences can lack the tags named with a protein.

The assay has as its target T1, rhesus CD11a (rhesus). The experiment in a line: binding to rhesus peripheral blood lymphocytes.
For B1, the binding result was “no binding (tested: greater than 10-fold weaker than HuIgG1)”.

On to B2, for which the binding result is given as “no binding (tested: greater than 10-fold weaker than HuIgG1)”.

Turning to B3, the binding result is reported as “no binding (tested: greater than 10-fold weaker than HuIgG1)”. Turning to B4, the binding result is recorded as “no binding (tested: greater than 10-fold weaker than HuIgG1)”. In the case of B5, the binding result was “no binding (tested: greater than 10-fold weaker than HuIgG1)”. Regarding B6, the binding entry is on record as “no binding (tested: greater than 10-fold weaker than HuIgG1)”. For B7, the binding entry was “no binding (tested: greater than 10-fold weaker than HuIgG1)”.
